Source: patent publication US6608107B2, “Methods and compositions to treat conditions associated with neovascularization” (Wackvom Limited, priority 2000, dated 2003)
At least one compound was matched to its structure with a doubt left.

System: endothelial cells
Assay: Endothelial Cell Assay (inhibition of endothelial cell growth)
Type: cell-based
Conditions: very low concentrations (fractions of milimolar)
Method: The assays were carried out according to the procedures of Connally, et al. (1986) Anal. Biochem. 152:136-4 with modifications (Liang and Wong (1999) ANGIOGENESIS: FROM THE MOLECULAR TO INTEGRATIVE PHARMACOLOGY edited by Maradoudakis, Kluwer Academic/Plenum. Publishers, New York).

## Cc1cc2c(C(C)C)c(O)c(O)c(C=O)c2c(O)c1-c1c(C)cc2c(C(C)C)c(O)c(O)c(C=O)c2c1O [Gossypol]
  inhibition of endothelial cell growth, concentration-dependence study (FIG. 1): very strong inhibitor of endothelial cell growth
